Measurements: the supplement of paper PMC3334620
In all, about 33,000 sequences were measured (“E-score (-0.5 to 0.5)”: median about -0.0034, highest 2% from about 0.25 on). This is one part of the list.

Each sequence was assayed against T1, Yap3 (UniProt P38749) (assay: PBM E-score (8-mer binding enrichment) (E-score (-0.5 to 0.5)); higher = stronger / more preferred TF binding). Conditions: protein concentration: 100 nM; construct: GST-full length.
T1 sequence: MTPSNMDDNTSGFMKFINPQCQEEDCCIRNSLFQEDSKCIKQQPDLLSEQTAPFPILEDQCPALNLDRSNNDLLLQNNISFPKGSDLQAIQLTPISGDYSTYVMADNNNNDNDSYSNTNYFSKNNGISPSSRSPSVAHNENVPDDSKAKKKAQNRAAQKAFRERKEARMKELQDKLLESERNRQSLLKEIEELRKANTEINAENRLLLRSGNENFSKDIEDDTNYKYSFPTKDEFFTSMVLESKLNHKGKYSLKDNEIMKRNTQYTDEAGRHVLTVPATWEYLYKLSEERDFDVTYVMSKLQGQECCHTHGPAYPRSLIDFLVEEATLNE
Method: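 Universal 'all 10-mer' protein binding microarrays (Agilent AMADID 015681) probed with GST-tagged S. cerevisiae TFs (full-length or DBD) made by in vitro transcription/translation (PURExpress), about 100-200 nM. Bound TF was detected with fluorescent anti-GST. Each ungapped 8-mer (which stands for itself and its reverse complement) is scored by the PBM enrichment score (E-score), a modified Wilcoxon-Mann-Whitney statistic from -0.5 to +0.5, computed with the Universal PBM Analysis Suite. Scale: above 0.35 generally sequence-specific binding.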
In the case of CTACCAAA, the “PBM E-score” value is reported as 0.00866. With TCTCCAGA the “PBM E-score” value was -0.251. With AAGAGTGA the “PBM E-score” value was -0.0417. With CTAGGTCC the “PBM E-score” value was -0.0823. For AGCCACCG, the “PBM E-score” value was -0.111. For TGCTCCCA, the “PBM E-score” value was -0.0936. In the case of GGGTGCCA, the “PBM E-score” value is reported as -0.13. For AGGTAAAA, the “PBM E-score” value was 0.0276. With TTGTACAA the “PBM E-score” value was 0.185. With GCAGCTGA the “PBM E-score” value was 0.0588. With AATCTTTG the “PBM E-score” value was 0.0886. CTACAAAA was tested, and the “PBM E-score” value was 0.0817. With GAACACCC the “PBM E-score” value was -0.207. With GCGACAGA the “PBM E-score” value was 0.0746. For ACCTGGAC, the “PBM E-score” value was -0.196. With AATTTATC the “PBM E-score” value was 0.325. For AGTAAAGA, the “PBM E-score” value was 0.16. With CAAGACAA the “PBM E-score” value was 0.0625. With AAAACTAT the “PBM E-score” value was 0.182. AATCGGAG was tested, and the “PBM E-score” value was -0.0484. In the case of CTAGATAC, the “PBM E-score” value is reported as 0.0496. For CAAAACAG, the “PBM E-score” value was 0.17. For GGGAACCA, the “PBM E-score” value was -0.182. With GAAAGGCC the “PBM E-score” value was -0.0874. GGGGACTA was tested, and the “PBM E-score” value was -0.273. CTGGTACA was tested, and the “PBM E-score” value was -0.0224. ATGGTTTG was tested, and the “PBM E-score” value was 0.0243. With GATTCCCC the “PBM E-score” value was -0.0797. For AACTGTTG, the “PBM E-score” value was -0.00018. For GAAGTCGA, the “PBM E-score” value was 0.0787. AGCCAAGC was tested, and the “PBM E-score” value was -0.0982. For GCTCTCAA, the “PBM E-score” value was -0.0253. AAGCCGCA was tested, and the “PBM E-score” value was -0.0498. ATAGCAGA was tested, and the “PBM E-score” value was 0.0204. For GCATGTAC, the “PBM E-score” value was 0.105. With CTCGTAAG the “PBM E-score” value was 0.257. For CATAGCAA, the “PBM E-score” value was 0.0682. For GGTGAGCA, the “PBM E-score” value was -0.124. In the case of ATTGCGAC, the “PBM E-score” value is reported as 0.157. In the case of CACTTCTC, the “PBM E-score” value is reported as -0.077. For AGGCGGAT, the “PBM E-score” value was -0.0189. GCGGTGGA was tested, and the “PBM E-score” value was -0.0216. CCTTACTC was tested, and the “PBM E-score” value was 0.183. CGAGTGCA was tested, and the “PBM E-score” value was 0.0244. In the case of AGCTTATC, the “PBM E-score” value is reported as 0.0721. With CGGCTGAG the “PBM E-score” value was -0.0827. In the case of CTCCCGAG, the “PBM E-score” value is reported as -0.198. In the case of ATGTACTG, the “PBM E-score” value is reported as 0.0402. ACGTTAGC was tested, and the “PBM E-score” value was 0.103. With CAGTAAAC the “PBM E-score” value was 0.0443. In the case of CCTAGGCA, the “PBM E-score” value is reported as -0.125. With ATTAATAC the “PBM E-score” value was 0.201. In the case of ACAACGAC, the “PBM E-score” value is reported as 0.117. For GAGGCCTC, the “PBM E-score” value was -0.25. For CTCAGGTA, the “PBM E-score” value was -0.124. For ACGGCTCC, the “PBM E-score” value was -0.021. AAAAAGGA was tested, and the “PBM E-score” value was 0.0323. In the case of CCTGAAGC, the “PBM E-score” value is reported as -0.257. With TGTTAAAA the “PBM E-score” value was 0.189. CGGTACCA was tested, and the “PBM E-score” value was -0.0367. CTTTACGA was tested, and the “PBM E-score” value was -0.0493. ATATTAAA was tested, and the “PBM E-score” value was 0.378. In the case of CGAAGTAG, the “PBM E-score” value is reported as 0.0201. For ACGCAGGC, the “PBM E-score” value was -0.226. In the case of TAAGGTGA, the “PBM E-score” value is reported as 0.0963. AAGTCCTG was tested, and the “PBM E-score” value was -0.253. CCGTGAAC was tested, and the “PBM E-score” value was -0.161. CGATTTTA was tested, and the “PBM E-score” value was 0.235. In the case of ACCCACAG, the “PBM E-score” value is reported as -0.205. With CAGAAATC the “PBM E-score” value was 0.0762. With CAGACGTC the “PBM E-score” value was -0.08. With CGCGAATA the “PBM E-score” value was 0.117. In the case of ACACACCG, the “PBM E-score” value is reported as -0.0997. With AGTCTCTG the “PBM E-score” value was -0.131. For ATCAAGTC, the “PBM E-score” value was 0.0326. For CAGCGGGA, the “PBM E-score” value was -0.0551. In the case of ACGATTTC, the “PBM E-score” value is reported as 0.0995. For AGATCGAT, the “PBM E-score” value was 0.142. In the case of AGAAAATC, the “PBM E-score” value is reported as 0.0582. In the case of ATACGGAC, the “PBM E-score” value is reported as 0.0169. With AAGAAAAC the “PBM E-score” value was 0.154. In the case of ATATCGAA, the “PBM E-score” value is reported as 0.135. ACGATCTC was tested, and the “PBM E-score” value was -0.107. With AAGGTTCT the “PBM E-score” value was -0.018. For CCTGGTTC, the “PBM E-score” value was -0.0464. For CTATGTCC, the “PBM E-score” value was -0.117. With AATACCTA the “PBM E-score” value was 0.214. TCAAGAAA was tested, and the “PBM E-score” value was 0.239. For CGTAATGC, the “PBM E-score” value was 0.203. With AGAAGCAT the “PBM E-score” value was 0.0731. For CAAGACGC, the “PBM E-score” value was -0.0247. With GGAAAAAA the “PBM E-score” value was 0.248. With ATTCGATA the “PBM E-score” value was 0.158. In the case of TCCGGTAA, the “PBM E-score” value is reported as 0.0357. GAGAAAAA was tested, and the “PBM E-score” value was 0.095. CACCAAGG was tested, and the “PBM E-score” value was -0.0382. In the case of ATGCTACC, the “PBM E-score” value is reported as 0.0357. CGCTACAG was tested, and the “PBM E-score” value was -0.0993. AAAGCGAT was tested, and the “PBM E-score” value was 0.188. For CCCATGGG, the “PBM E-score” value was -0.128. With GTATACTA the “PBM E-score” value was -0.112. With ACCATGGG the “PBM E-score” value was -0.172. For GCAGGTAC, the “PBM E-score” value was -0.146. In the case of ACCCTAAA, the “PBM E-score” value is reported as -0.078. In the case of TATTAGAA, the “PBM E-score” value is reported as 0.287. With GCCGCAAA the “PBM E-score” value was 0.103. With AGGAAAAA the “PBM E-score” value was 0.135. For ATTCTTGC, the “PBM E-score” value was 0.104. With GCTCGGAC the “PBM E-score” value was -0.0978. In the case of CGTCTGCC, the “PBM E-score” value is reported as -0.214. For AGTTGCAT, the “PBM E-score” value was 0.0716. With ACACCCGG the “PBM E-score” value was -0.139. With GCCGGAAC the “PBM E-score” value was -0.0692. With ATAGTTCA the “PBM E-score” value was 0.181. ATAATGCA was tested, and the “PBM E-score” value was 0.121. AATCCCGA was tested, and the “PBM E-score” value was 0.154. ACATTTCA was tested, and the “PBM E-score” value was 0.204. For AGAGCATA, the “PBM E-score” value was 0.00098. For CGCAGCAC, the “PBM E-score” value was -0.00122. In the case of AATATGGG, the “PBM E-score” value is reported as 0.0708. With ACATACAT the “PBM E-score” value was 0.219. In the case of CTTGCTCA, the “PBM E-score” value is reported as -0.206. In the case of ACAGCAAA, the “PBM E-score” value is reported as 0.0507. In the case of CGTGGAAA, the “PBM E-score” value is reported as 0.252. For CACGTTGG, the “PBM E-score” value was -0.0606. In the case of GTAGCAAC, the “PBM E-score” value is reported as -0.0446. CACCGCAG was tested, and the “PBM E-score” value was -0.0641. For ACGGCGCG, the “PBM E-score” value was 0.14. ACTCCATA was tested, and the “PBM E-score” value was 0.00285. With CGTCGACC the “PBM E-score” value was -0.0395. In the case of ATAGCCGC, the “PBM E-score” value is reported as 0.00965. For GAGCGCCA, the “PBM E-score” value was -0.234. For CGTTTAGA, the “PBM E-score” value was 0.125. In the case of GTCACCCA, the “PBM E-score” value is reported as -0.129. With CTTACACA the “PBM E-score” value was 0.0468. With AACAGGCA the “PBM E-score” value was 0.0613. GATATATC was tested, and the “PBM E-score” value was 0.133. ACTGAGTA was tested, and the “PBM E-score” value was 0.0587. With CTGGAATA the “PBM E-score” value was 0.198. For GTCCACAC, the “PBM E-score” value was 0.00272. AACTACGC was tested, and the “PBM E-score” value was -0.0379. AAGACCAG was tested, and the “PBM E-score” value was -0.133. TGATGGAA was tested, and the “PBM E-score” value was 0.108. In the case of ATGTCACA, the “PBM E-score” value is reported as 0.17. GTTTAAAA was tested, and the “PBM E-score” value was 0.0984. AATGTGAG was tested, and the “PBM E-score” value was 0.0871. In the case of AAGACTAA, the “PBM E-score” value is reported as 0.0191. TCAGCCAA was tested, and the “PBM E-score” value was -0.0735. In the case of ATCTCGCA, the “PBM E-score” value is reported as 0.126. In the case of AGCAGCCG, the “PBM E-score” value is reported as -0.093. AGAATGCG was tested, and the “PBM E-score” value was 0.0426. For CGAAGGCA, the “PBM E-score” value was -0.16. For AAGTGACC, the “PBM E-score” value was -0.153. With ATGTTGGC the “PBM E-score” value was 0.152. With GCCATTGA the “PBM E-score” value was 0.0559. In the case of ATTTCAGG, the “PBM E-score” value is reported as 0.00794. In the case of CCAACTTA, the “PBM E-score” value is reported as 0.0826. In the case of GAAGCTGC, the “PBM E-score” value is reported as -0.0281. In the case of CCTTTGAC, the “PBM E-score” value is reported as -0.0985. For CTCTTGGC, the “PBM E-score” value was -0.101. With CGCGTCAC the “PBM E-score” value was 0.0199. With AAAGTCGT the “PBM E-score” value was 0.0717. With AAGCGGCT the “PBM E-score” value was 0.0678. CAAAACTG was tested, and the “PBM E-score” value was 0.144. For ATCCCAAC, the “PBM E-score” value was -0.0666. With CTATCGTC the “PBM E-score” value was -0.134. For CTGGCTTC, the “PBM E-score” value was -0.202. With ACGAAAAC the “PBM E-score” value was 0.202. With ATCGGTAC the “PBM E-score” value was 0.0358. In the case of TAGCGCTA, the “PBM E-score” value is reported as 0.00734. For ATCATAGA, the “PBM E-score” value was 0.168. In the case of ACATGCCG, the “PBM E-score” value is reported as 0.0724.
